In the supplement of paper PMC10849652:
Some of the results follow.

Amino acid sequences for entries named in this document (tags omitted). A change or cut given only in a name is not applied to a line headed by its entry.
UniProt Q92600, whole entry, looked up: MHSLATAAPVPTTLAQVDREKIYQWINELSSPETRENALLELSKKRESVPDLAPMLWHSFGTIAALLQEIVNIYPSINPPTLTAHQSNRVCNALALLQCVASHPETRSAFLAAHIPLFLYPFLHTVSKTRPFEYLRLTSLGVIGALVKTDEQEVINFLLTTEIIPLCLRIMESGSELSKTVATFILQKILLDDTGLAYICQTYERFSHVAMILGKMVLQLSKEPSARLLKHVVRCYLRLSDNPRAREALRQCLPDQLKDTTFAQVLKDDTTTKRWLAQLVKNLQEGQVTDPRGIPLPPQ
UniProt P30622: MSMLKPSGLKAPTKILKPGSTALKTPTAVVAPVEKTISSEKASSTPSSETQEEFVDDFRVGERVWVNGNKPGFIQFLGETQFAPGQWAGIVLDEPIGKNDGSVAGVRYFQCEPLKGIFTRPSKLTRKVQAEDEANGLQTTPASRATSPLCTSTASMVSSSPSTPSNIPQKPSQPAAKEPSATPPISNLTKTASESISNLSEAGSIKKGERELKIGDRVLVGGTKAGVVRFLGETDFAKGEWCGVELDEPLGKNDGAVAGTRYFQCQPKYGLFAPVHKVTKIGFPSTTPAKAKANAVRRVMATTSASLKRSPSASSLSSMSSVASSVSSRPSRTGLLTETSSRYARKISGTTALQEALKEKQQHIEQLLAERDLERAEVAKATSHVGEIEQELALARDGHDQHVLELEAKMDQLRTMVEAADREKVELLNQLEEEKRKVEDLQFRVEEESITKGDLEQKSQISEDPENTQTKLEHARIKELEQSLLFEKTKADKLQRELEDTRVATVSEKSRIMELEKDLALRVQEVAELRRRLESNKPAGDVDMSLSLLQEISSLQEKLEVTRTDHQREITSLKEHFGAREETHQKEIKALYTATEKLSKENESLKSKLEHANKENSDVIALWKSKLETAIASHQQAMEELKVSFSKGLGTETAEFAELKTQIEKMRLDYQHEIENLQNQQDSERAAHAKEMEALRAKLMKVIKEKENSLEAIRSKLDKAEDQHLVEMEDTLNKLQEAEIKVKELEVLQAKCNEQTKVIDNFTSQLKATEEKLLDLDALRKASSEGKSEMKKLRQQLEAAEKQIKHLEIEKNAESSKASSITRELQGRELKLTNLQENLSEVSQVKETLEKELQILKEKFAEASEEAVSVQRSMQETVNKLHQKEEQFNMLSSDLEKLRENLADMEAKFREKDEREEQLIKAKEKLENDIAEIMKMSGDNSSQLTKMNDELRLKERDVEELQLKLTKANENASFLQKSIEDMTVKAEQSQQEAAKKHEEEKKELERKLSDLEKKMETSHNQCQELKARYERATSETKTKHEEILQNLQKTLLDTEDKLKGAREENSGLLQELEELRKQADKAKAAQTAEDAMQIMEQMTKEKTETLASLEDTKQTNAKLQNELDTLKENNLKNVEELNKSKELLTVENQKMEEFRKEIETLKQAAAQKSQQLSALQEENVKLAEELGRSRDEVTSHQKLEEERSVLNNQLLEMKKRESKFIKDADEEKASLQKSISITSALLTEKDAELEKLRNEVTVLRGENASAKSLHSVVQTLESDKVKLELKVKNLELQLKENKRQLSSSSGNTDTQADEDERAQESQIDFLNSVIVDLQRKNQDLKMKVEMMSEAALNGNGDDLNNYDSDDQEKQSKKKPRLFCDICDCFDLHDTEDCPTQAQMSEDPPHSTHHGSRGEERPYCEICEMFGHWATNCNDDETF
UniProt Q9NZ45: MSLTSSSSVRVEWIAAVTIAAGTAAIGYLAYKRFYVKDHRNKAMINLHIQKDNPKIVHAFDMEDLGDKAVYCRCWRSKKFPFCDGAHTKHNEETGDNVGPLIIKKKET
UniProt P08123: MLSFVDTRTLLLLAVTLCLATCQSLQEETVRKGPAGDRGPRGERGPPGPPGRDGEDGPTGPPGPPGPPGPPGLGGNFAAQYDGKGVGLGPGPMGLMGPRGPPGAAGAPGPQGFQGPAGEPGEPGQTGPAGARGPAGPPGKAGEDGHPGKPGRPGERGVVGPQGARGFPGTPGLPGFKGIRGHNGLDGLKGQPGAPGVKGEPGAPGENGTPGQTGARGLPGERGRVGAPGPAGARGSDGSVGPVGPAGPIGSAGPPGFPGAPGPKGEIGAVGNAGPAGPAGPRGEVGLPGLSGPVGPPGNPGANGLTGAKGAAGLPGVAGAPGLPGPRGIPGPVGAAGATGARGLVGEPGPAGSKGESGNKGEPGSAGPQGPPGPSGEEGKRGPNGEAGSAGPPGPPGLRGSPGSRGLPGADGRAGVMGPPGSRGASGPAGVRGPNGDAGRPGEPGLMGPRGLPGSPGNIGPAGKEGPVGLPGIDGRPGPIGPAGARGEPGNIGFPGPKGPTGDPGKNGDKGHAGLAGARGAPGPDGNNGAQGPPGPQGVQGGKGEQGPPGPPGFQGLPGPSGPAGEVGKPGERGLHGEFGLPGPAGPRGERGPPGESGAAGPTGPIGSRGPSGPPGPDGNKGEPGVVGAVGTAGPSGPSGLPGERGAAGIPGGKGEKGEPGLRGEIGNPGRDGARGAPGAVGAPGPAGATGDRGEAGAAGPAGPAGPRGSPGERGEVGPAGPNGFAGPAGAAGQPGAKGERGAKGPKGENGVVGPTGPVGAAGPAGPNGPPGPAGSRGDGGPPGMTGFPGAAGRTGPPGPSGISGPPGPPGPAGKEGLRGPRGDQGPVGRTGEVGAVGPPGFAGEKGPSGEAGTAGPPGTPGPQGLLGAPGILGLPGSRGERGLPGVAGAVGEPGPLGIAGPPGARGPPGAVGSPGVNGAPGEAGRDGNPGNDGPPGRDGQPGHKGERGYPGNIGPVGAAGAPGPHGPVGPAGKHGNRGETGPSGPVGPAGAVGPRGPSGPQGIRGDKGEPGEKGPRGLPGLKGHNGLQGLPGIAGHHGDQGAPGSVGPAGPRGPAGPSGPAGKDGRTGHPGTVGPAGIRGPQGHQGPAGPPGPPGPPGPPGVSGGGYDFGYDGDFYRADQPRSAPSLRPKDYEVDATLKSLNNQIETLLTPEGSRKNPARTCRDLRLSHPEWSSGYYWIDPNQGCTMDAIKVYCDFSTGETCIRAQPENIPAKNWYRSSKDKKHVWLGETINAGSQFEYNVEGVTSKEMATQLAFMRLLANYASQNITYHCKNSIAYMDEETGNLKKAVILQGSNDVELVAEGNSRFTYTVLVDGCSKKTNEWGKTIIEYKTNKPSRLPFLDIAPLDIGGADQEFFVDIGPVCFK
UniProt O75175, whole entry, looked up: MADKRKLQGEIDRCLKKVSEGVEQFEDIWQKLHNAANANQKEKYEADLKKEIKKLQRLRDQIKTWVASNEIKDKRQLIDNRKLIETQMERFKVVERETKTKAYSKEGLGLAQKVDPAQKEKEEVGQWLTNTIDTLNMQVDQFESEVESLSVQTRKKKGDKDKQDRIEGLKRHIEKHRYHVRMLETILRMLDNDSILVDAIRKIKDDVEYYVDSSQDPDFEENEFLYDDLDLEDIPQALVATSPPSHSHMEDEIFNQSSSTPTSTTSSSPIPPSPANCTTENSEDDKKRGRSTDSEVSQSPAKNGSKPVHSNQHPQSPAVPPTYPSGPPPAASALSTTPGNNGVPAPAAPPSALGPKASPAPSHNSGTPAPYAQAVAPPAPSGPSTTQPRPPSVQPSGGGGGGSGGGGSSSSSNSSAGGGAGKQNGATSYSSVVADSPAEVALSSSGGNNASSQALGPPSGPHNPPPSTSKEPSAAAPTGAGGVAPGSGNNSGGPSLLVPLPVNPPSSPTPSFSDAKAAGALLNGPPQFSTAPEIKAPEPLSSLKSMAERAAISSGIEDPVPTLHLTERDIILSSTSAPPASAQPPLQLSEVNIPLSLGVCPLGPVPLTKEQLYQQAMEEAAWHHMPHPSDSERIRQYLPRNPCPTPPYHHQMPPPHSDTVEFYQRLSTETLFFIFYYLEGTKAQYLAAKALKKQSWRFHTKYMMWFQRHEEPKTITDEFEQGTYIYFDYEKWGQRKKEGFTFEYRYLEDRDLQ
UniProt Q9NRP2: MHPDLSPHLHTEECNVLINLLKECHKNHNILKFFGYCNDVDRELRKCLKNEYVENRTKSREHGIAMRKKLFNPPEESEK
UniProt Q9NY35: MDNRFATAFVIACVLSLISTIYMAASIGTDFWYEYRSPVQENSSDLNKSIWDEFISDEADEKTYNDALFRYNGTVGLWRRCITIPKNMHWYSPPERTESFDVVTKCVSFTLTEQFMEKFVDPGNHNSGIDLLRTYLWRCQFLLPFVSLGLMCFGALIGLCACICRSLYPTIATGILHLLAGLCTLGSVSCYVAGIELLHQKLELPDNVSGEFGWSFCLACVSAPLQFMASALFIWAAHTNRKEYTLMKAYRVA
UniProt Q9UHD1: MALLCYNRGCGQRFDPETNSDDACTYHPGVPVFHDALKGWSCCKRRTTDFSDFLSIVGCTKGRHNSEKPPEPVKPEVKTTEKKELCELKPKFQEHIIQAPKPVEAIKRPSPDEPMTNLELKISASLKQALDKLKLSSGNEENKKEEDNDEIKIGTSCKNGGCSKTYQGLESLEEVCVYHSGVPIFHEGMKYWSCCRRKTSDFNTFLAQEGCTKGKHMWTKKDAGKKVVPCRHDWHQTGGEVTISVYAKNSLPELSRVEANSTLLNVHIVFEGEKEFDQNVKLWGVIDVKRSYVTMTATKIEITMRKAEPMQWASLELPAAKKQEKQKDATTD
UniProt Q9H078: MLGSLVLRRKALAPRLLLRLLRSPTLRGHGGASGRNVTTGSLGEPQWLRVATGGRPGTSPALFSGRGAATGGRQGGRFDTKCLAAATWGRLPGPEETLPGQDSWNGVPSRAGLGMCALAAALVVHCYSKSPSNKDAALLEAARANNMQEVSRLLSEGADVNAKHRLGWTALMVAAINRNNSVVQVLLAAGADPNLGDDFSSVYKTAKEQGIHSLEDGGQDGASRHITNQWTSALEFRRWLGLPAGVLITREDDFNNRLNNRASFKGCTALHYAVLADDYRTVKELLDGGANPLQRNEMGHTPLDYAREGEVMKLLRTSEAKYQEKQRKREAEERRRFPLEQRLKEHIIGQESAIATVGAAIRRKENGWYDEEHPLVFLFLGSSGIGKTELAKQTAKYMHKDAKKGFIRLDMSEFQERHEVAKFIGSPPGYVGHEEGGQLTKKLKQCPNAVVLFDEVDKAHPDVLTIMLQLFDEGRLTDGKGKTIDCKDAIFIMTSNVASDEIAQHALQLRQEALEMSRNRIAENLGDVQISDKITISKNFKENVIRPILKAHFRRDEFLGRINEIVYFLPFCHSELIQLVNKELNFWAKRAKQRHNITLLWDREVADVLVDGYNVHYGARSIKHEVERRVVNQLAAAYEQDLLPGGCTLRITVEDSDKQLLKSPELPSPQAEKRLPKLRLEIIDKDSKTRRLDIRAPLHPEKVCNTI
UniProt P09543: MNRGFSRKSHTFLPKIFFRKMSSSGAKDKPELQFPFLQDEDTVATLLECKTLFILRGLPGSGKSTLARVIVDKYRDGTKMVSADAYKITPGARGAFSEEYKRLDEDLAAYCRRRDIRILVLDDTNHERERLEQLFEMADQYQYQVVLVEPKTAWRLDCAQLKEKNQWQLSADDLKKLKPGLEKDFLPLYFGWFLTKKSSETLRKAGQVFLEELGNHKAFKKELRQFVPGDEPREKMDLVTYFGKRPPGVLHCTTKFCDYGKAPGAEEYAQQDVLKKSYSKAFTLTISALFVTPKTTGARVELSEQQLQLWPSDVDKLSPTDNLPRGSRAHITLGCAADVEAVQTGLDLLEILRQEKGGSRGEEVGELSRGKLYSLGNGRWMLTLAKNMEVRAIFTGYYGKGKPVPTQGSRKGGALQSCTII
UniProt Q9H9A5, whole entry, looked up: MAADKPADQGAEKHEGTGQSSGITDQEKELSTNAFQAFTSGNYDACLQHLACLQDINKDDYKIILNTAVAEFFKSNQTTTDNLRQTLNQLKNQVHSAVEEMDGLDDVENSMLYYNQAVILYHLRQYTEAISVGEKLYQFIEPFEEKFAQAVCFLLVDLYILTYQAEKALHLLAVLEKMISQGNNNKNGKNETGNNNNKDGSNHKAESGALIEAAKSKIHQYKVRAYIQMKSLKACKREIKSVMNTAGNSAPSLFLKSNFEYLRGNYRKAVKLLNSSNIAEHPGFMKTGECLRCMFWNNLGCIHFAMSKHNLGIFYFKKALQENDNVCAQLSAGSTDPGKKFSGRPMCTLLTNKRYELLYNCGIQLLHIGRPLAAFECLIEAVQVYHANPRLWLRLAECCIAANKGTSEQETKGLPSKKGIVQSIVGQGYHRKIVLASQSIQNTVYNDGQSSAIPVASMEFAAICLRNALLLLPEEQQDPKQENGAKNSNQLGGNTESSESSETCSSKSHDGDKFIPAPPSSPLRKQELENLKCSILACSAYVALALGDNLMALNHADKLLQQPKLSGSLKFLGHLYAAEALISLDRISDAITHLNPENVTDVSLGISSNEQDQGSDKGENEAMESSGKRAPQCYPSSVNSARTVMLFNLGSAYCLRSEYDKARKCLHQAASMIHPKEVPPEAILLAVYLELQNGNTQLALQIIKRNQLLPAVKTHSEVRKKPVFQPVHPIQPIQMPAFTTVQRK

What was measured:
Test in all cases: log2 fold change, soluble protein after heating vs DMSO (PISA); higher = thermal stabilisation; K562 cells, 10 uM, 30 min; active = over 0.2 and 3.5 SD of the protein, either way, in both replicates (recomputed)
[1] = compound: CS(=O)(=O)c1ccc(-c2cnc(N)c(C(=O)Nc3ccccc3)n2)cc1
In short: (§1)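 Quantification of soluble protein used TMTpro 16plex LC-MS/MS, with channel sums equalised. Samples were the supernatant after 21,000xg for 90 min of pooled aliquots from K562 cells (2×10^6 cells/mL) treated with 10 μM compound for 30 min, heated for 3 min over 48°C-58°C, and extracted in PBS with 0.5% NP-40 at 4°C. Values, from duplicates, describe thermal stability against control samples on a log2 fold-change scale.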

[2] = compound: C[C@@H](Oc1cc(-c2cnn(C3CCNCC3)c2)cnc1N)c1c(Cl)ccc(F)c1Cl [crizotinib]
In short: as §1

[3] = compound: C[C@@H]1COCCN1C2=NC(=NC(=C2)C3(CC3)S(=O)(=O)C)C4=C5C=CNC5=CC=C4
In short: as §1

[4] = compound: C[C@H](C1=CC=C(C=C1)C(=O)NC2=C3C=CNC3=NC=C2)N
In short: as §1

[5] = compound: C[C@H](Nc1ncnc2nc[nH]c12)c1cc2cccc(Cl)c2c(=O)n1-c1ccccc1 [duvelisib]
In short: as §1

[6] = compound: Cc1cc(Nc2cc(CN3CCOCC3)c3nc(C)c(Cc4ccc(Cl)cc4F)n3n2)n[nH]1 [gandotinib]
In short: as §1

[7] = compound: Cc1cc(Nc2cc(N3CCN(C)CC3)nc(Sc3ccc(NC(=O)C4CC4)cc3)n2)n[nH]1 [tozasertib]
In short: as §1

[8] = compound: Cc1cc(SCc2sc(-c3ccc(C(F)(F)F)cc3)nc2C)ccc1OCC(=O)O
In short: as §1

[9] = compound: Cc1ccc(-n2nc(C(C)(C)C)cc2NC(=O)Nc2ccc(OCCN3CCOCC3)c3ccccc23)cc1 [doramapimod]
In short: as §1

[10] = compound: Cc1ccc(C(=O)N(CCCN)[C@@H](c2nc3cc(Cl)ccc3c(=O)n2Cc2ccccc2)C(C)C)cc1 [ispinesib]
In short: as §1

[11] = compound: Cc1ccc(NC(=O)c2ccc(CN3CC[C@H](N(C)C)C3)c(C(F)(F)F)c2)cc1Nc1nccc(-c2cncnc2)n1 [bafetinib]
In short: as §1

[12] = compound: Cc1cccc(CC(=O)N2CCc3c2ccc(-c2cn(C)c4ncnc(N)c24)c3F)n1
In short: as §1

[13] = compound: Cc1cn(-c2cc(NC(=O)c3ccc(C)c(Nc4nccc(-c5cccnc5)n4)c3)cc(C(F)(F)F)c2)cn1 [nilotinib]
In short: as §1

[14] = compound: Cc1nc(Nc2n[nH]c3c2CN(C(=O)N[C@H](CN(C)C)c2ccccc2)C3(C)C)c2sccc2n1
In short: as §1

[15] = compound: Cc1nc(Nc2ncc(C(=O)Nc3c(C)cccc3Cl)s2)cc(N2CCN(CCO)CC2)n1 [dasatinib]
In short: as §1

[16] = compound: Cc1ncc(-c2ccnc(Nc3ccc(S(C)(=O)=O)cc3)n2)n1C(C)C
In short: as §1

[17] = compound: Cn1cc(-c2ccc3c(c2)CCN3C(=O)Cc2cccc(C(F)(F)F)c2)c2c(N)ncnc21
In short: as §1

[18] = compound: Cn1cc(-c2ccc3nnc(C(F)(F)c4ccc5ncccc5c4)n3n2)cn1
In short: as §1

[19] = compound: Cn1cncc1[C@@](N)(c1ccc(Cl)cc1)c1ccc2c(c1)c(-c1cccc(Cl)c1)cc(=O)n2C [tipifarnib]
In short: as §1

[20] = compound: FC(F)(F)c1ccc(/C=C/c2nc(COc3ccc(CCCCn4ccnn4)cc3)co2)cc1 [mubritinib]
In short: as §1

Measured: log2 fold change

CNOT9 isoform 2 (UniProt Q92600)
inactive: [1] 0 | [2] 0.02 | [3] 0.01 | [4] 0.009 | [5] 0.009 | [6] -0.013 | [7] 0.051 | [8] 0.115 | [9] -0.029 | [10] -0.029 | [11] 0.057 | [12] 0.06 | [13] 0 | [14] -0.027 | [15] -0.032 | [16] -0.016 | [17] -0.024 | [18] -0.037 | [19] -0.107 | [20] -0.012

CLIP1 isoform 1 (UniProt P30622)
inactive: [1] -0.001 | [2] 0.039 | [3] 0.003 | [4] -0.066 | [5] 0.001 | [6] -0.012 | [7] 0.004 | [8] -0.012 | [9] -0.006 | [10] 0.034 | [11] -0.061 | [12] -0.035 | [13] 0.018 | [14] -0.004 | [15] 0.018 | [16] -0.018 | [17] 0.008 | [18] 0.012 | [19] 0.034 | [20] 0.036

CISD1 (UniProt Q9NZ45)
inactive: [1] 0.038 | [2] 0.054 | [3] 0.035 | [4] -0.052 | [5] -0.03 | [6] 0.053 | [7] -0.026 | [8] -0.027 | [9] 0.002 | [10] 0.038 | [11] -0.084 | [12] -0.042 | [13] 0.052 | [14] 0.007 | [15] 0.025 | [16] 0.006 | [17] -0.002 | [18] 0.027 | [19] 0.03 | [20] 0.001

COL1A2 (UniProt P08123)
inactive: [1] 0.022 | [2] 0.229 | [3] -0.013 | [4] 0.179 | [5] -0.027 | [6] -0.022 | [7] -0.124 | [8] -0.288 | [9] -0.146 | [10] 0.016 | [11] -0.141 | [12] -0.027 | [13] -0.046 | [14] 0.04 | [15] -0.013 | [16] 0.238 | [17] 0.036 | [18] -0.013

CNPY2 (UniProt Q9Y2B0)
inactive: [1] 0.027 | [2] 0.026 | [3] -0.018 | [4] 0.042 | [5] 0.076 | [6] -0.007 | [7] -0.002 | [8] 0.026 | [9] -0.046 | [10] 0.021 | [11] -0.093 | [12] -0.049 | [13] 0.021 | [14] 0.018 | [15] 0.008 | [16] -0.027 | [17] 0.032 | [18] 0.032 | [19] 0.054 | [20] 0.015

CNOT3 (UniProt O75175)
inactive: [1] -0.023 | [2] -0.053 | [3] -0.034 | [4] -0.01 | [5] 0.029 | [6] -0.077 | [7] 0.051 | [8] 0.064 | [9] -0.021 | [10] -0.002 | [11] 0.022 | [12] 0.082 | [13] 0.011 | [14] -0.018 | [15] -0.029 | [16] 0.011 | [17] -0.017 | [18] 0.03 | [19] -0.096 | [20] 0.002

CMC2 (UniProt Q9NRP2)
inactive: [1] -0.035 | [2] -0.012 | [3] 0.071 | [4] -0.035 | [5] 0.048 | [6] -0.028 | [7] 0.05 | [8] -0.113 | [9] -0.05 | [10] 0.066 | [11] -0.107 | [12] -0.005 | [13] -0.04 | [14] 0.045 | [15] 0.092 | [16] -0.031 | [17] -0.015 | [18] 0.124 | [19] 0.112 | [20] 0.024

CHRAC1 (UniProt Q9NRG0)
inactive: [1] -0.061 | [2] -0.097 | [3] 0.042 | [4] -0.04 | [5] 0.074 | [6] -0.084 | [7] -0.003 | [8] -0.008 | [9] 0.016 | [10] 0.176 | [11] 0.061 | [12] 0.067 | [13] -0.017 | [14] -0.047 | [15] -0.01 | [16] 0.035 | [17] 0.038 | [18] -0.021 | [19] -0.056 | [20] 0.05

CLDND1 (UniProt Q9NY35)
inactive: [1] 0.065 | [2] 0.094 | [3] 0.047 | [4] 0.092 | [5] 0 | [6] 0 | [7] 0.049 | [8] -0.056 | [9] -0.001 | [10] -0.196 | [11] 0.022 | [12] -0.007 | [13] 0.157 | [14] -0.156 | [15] 0.186 | [16] -0.003 | [17] -0.269 | [18] -0.028 | [19] 0.029 | [20] 0.052

CHORDC1 (UniProt Q9UHD1)
inactive: [1] 0.037 | [2] -0.02 | [3] 0.063 | [4] -0.062 | [5] 0.01 | [6] -0.041 | [7] -0.009 | [8] 0.01 | [9] -0.02 | [10] 0.099 | [11] 0.045 | [12] 0.019 | [13] 0.121 | [14] 0.027 | [15] -0.017 | [16] 0.01 | [17] 0.058 | [18] -0.003 | [19] -0.073 | [20] 0.176

CLPB isoform 2 (UniProt Q9H078)
inactive: [1] 0.062 | [2] -0.119 | [3] 0.044 | [4] 0 | [5] -0.035 | [6] -0.07 | [7] -0.017 | [8] 0.076 | [9] 0.022 | [10] -0.046 | [11] -0.103 | [12] 0.147 | [13] -0.007 | [14] -0.066 | [15] -0.144 | [16] 0.015 | [17] 0.054 | [18] -0.004 | [19] 0.036 | [20] 0

Fetched one by one from above (2):
CHORDC1 (UniProt Q9UHD1)
inactive: [1] 0.037 | [2] -0.02 | [3] 0.063 | [4] -0.062 | [5] 0.01 | [6] -0.041 | [7] -0.009 | [8] 0.01 | [9] -0.02 | [10] 0.099 | [11] 0.045 | [12] 0.019 | [13] 0.121 | [14] 0.027 | [15] -0.017 | [16] 0.01 | [17] 0.058 | [18] -0.003 | [19] -0.073 | [20] 0.176

CNPY2 (UniProt Q9Y2B0)
inactive: [1] 0.027 | [2] 0.026 | [3] -0.018 | [4] 0.042 | [5] 0.076 | [6] -0.007 | [7] -0.002 | [8] 0.026 | [9] -0.046 | [10] 0.021 | [11] -0.093 | [12] -0.049 | [13] 0.021 | [14] 0.018 | [15] 0.008 | [16] -0.027 | [17] 0.032 | [18] 0.032 | [19] 0.054 | [20] 0.015

Later entries

CNP (UniProt P09543)
inactive: [1] 0.024 | [2] 0.01 | [3] 0.058 | [4] -0.038 | [5] 0.105 | [6] 0.028 | [7] -0.037 | [8] 0.03 | [9] -0.041 | [10] 0.038 | [11] -0.031 | [12] -0.055 | [13] -0.038 | [14] 0.003 | [15] -0.03 | [16] 0.005 | [17] 0.043 | [18] -0.019 | [19] -0.014 | [20] -0.014

CNTNAP4 (UniProt Q9C0A0)
inactive: [1] -0.176 | [2] 0.089 | [3] 0.016 | [4] 0.256 | [5] -0.142 | [6] 0.147 | [7] 0.062 | [8] -0.005 | [9] 0.14 | [10] -0.043 | [11] 0.291 | [12] 0.003 | [13] -0.077 | [14] 0.164 | [15] 0.277 | [16] -0.08 | [17] -0.27 | [18] -0.12 | [19] 0.078 | [20] -0.224

CLIC2 (UniProt O15247)
inactive: [1] 0.031 | [2] 0.01 | [3] 0.045 | [4] 0.009 | [5] -0.019 | [6] -0.107 | [7] 0.065 | [8] 0.134 | [9] -0.07 | [10] 0.073 | [11] 0.016 | [12] 0.009 | [13] -0.024 | [14] -0.063 | [15] -0.107 | [16] 0.008 | [17] 0.034 | [18] -0.002 | [19] -0.053 | [20] 0.046

CNOT10 isoform 6 (UniProt Q9H9A5)
inactive: [1] 0.007 | [2] -0.116 | [3] -0.061 | [4] 0.019 | [5] -0.078 | [6] 0.028 | [7] 0.015 | [8] 0.064 | [9] 0.047 | [10] -0.052 | [11] 0.023 | [12] 0.051 | [13] -0.013 | [14] 0.017 | [15] -0.024 | [16] -0.082 | [17] -0.059 | [18] -0.015 | [19] 0 | [20] 0.004

CNNM2 (UniProt Q9H8M5)
inactive: [1] -0.155 | [2] 0.075 | [3] -0.044 | [4] 0.295 | [5] -0.134 | [6] 0.031 | [7] -0.04 | [8] 0.278 | [9] 0.128 | [10] 0.216 | [11] -0.178 | [12] -0.228 | [13] 0.129 | [14] -0.017 | [15] -0.095 | [16] -0.071 | [17] 0.021 | [18] -0.113 | [19] 0.173 | [20] 0.01
